Source: patent publication US10588921B2, “Drug for the treatment of cholesterol accumulation disorders” (NATIONAL UNIVERSITY CORPORATION KUMAMOTO UNIVERSITY, priority 2013, dated 2020)

System: NPC-derived HLCs
Experiment: Microarray, cluster and PCA analysis of HLCs treated with HPCDs
Format: cell-based, human
Conditions: FIG. 25, 26

**Q.** 2-hydroxypropyl-γ-cyclodextrin [HPGCD] was tested. Which “mechanism of action by cluster analysis and PCA” value did it give?
**A.** The value was “acts with the mechanism different from HPBCD”.
